# Measured values as given in the supplement of paper PMC8728848.
# Some of the results follow.
# B1: Actd5 (Actinidia), P84527 (protein)
# chain: ISSCNGPCRDLNDCDGQLICIKGKCNDDPQVGTHICRGTTHSHQPGGCKPSGTLTCRGKSYPTYDCSPPVTSSTPAKLTNNDFSEGGDDGGPSECDESYHNNNERIVALSTGWYNGGSRCGKMIRITASNGKSVSAKVVDECDSRHGCDKEHAGQPPCRNNIVDGSNAVWSALGLDKNVGVVDITWSMA
# Experiments:
# Assay in all cases: glycan array binding signal (z-score within array); higher = stronger binding
# Conditions in all cases: glycan notation: IUPAC condensed, linker removed
# [1] = target: Man(a1-2)Man(a1-3)[Man(a1-2)Man(a1-6)]Man
# Method in brief: (§1)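 Columns mapping to the same glycan were averaged after glycan names were converted to IUPAC-condensed notation. The data come from 3228 arrays in the Consortium for Functional Glycomics database, limited to those with an available protein sequence. Binding is reported as a within-array Z-score averaged across arrays of one protein sequence and across linkers.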
# [2] = target: Man(a1-2)Man(a1-3)[Man(a1-2)Man(a1-6)]Man(a1-6)[Man(a1-2)Man(a1-2)Man(a1-3)]Man
# Method in brief: as §1
# [3] = target: Man(a1-2)Man(a1-3)[Man(a1-2)Man(a1-6)]Man(a1-6)[Man(a1-2)Man(a1-2)Man(a1-3)]Man(b1-4)GlcNAc(b1-4)GlcNAc
# Method in brief: as §1
# [4] = target: Man(a1-2)Man(a1-3)[Man(a1-6)]Man(a1-6)[Man(a1-2)Man(a1-3)]Man(b1-4)GlcNAc(b1-4)GlcNAc
# Method in brief: as §1
# [5] = target: Man(a1-2)Man(a1-6)[Man(a1-3)]Man(a1-6)[Man(a1-2)Man(a1-2)Man(a1-3)]Man
# Method in brief: as §1
# [6] = target: Man(a1-2)Man(a1-6)[Man(a1-3)]Man(a1-6)[Man(a1-2)Man(a1-2)Man(a1-3)]Man(b1-4)GlcNAc(b1-4)GlcNAc
# Method in brief: as §1
# Man(a1-3)[Man(a1-6)]Man = target: Man(a1-3)[Man(a1-6)]Man
# Method in brief: as §1
# [7] = target: Man(a1-3)[Man(a1-6)]Man(a1-6)[Man(a1-2)Man(a1-3)]Man(b1-4)GlcNAc(b1-4)GlcNAc
# Method in brief: as §1
# [8] = target: Man(a1-3)[Man(a1-6)]Man(a1-6)[Man(a1-3)]Man
# Method in brief: as §1
# [9] = target: Man(a1-3)[Man(a1-6)]Man(a1-6)[Man(a1-3)]Man(b1-4)GlcNAc(b1-4)GlcNAc
# Method in brief: as §1
# [10] = target: Man(a1-3)[Man(a1-6)]Man(b1-4)GlcNAc(b1-4)GlcNAc
# Method in brief: as §1
# [11] = target: Man(a1-3)[Man(a1-6)]Man(b1-4)GlcNAc(b1-4)[Fuc(a1-6)]GlcNAc
# Method in brief: as §1
# Man(a1-6)Man = target: Man(a1-6)Man
# Method in brief: as §1
# Man(b1-4)GlcNAc = target: Man(b1-4)GlcNAc
# Method in brief: as §1
# MurNAc(b1-4)GlcNAc = target: MurNAc(b1-4)GlcNAc
# Method in brief: as §1
# Neu5Ac(a2-3)Gal = target: Neu5Ac(a2-3)Gal
# Method in brief: as §1
# [12] = target: Neu5Ac(a2-3)Gal(b1-3)GalNAc
# Method in brief: as §1
# [13] = target: Neu5Ac(a2-3)Gal(b1-3)GalNAc(b1-3)Gal(a1-4)Gal(b1-4)Glc
# Method in brief: as §1
# [14] = target: Neu5Ac(a2-3)Gal(b1-3)GalNAc(b1-4)Gal(b1-4)Glc
# Method in brief: as §1
# [15] = target: Neu5Ac(a2-3)Gal(b1-3)GalNAc(b1-4)[Neu5Ac(a2-3)]Gal(b1-4)Glc
# Method in brief: as §1
# [16] = target: Neu5Ac(a2-3)Gal(b1-3)GalNAc(b1-4)[Neu5Ac(a2-8)Neu5Ac(a2-3)]Gal(b1-4)Glc
# Method in brief: as §1
# [17] = target: Neu5Ac(a2-3)Gal(b1-3)GalNAc6S
# Method in brief: as §1
# [18] = target: Neu5Ac(a2-3)Gal(b1-3)GlcNAc
# Method in brief: as §1
# [19] = target: Neu5Ac(a2-3)Gal(b1-3)GlcNAc(b1-2)Man
# Method in brief: as §1
# [20] = target: Neu5Ac(a2-3)Gal(b1-3)GlcNAc(b1-2)Man(a1-3)[GlcNAc(b1-4)][Neu5Ac(a2-3)Gal(b1-3)GlcNAc(b1-2)Man(a1-6)]Man(b1-4)GlcNAc(b1-4)GlcNAc
# Method in brief: as §1
# [21] = target: Neu5Ac(a2-3)Gal(b1-3)GlcNAc(b1-2)Man(a1-3)[Neu5Ac(a2-3)Gal(b1-3)GlcNAc(b1-2)Man(a1-6)]Man(b1-4)GlcNAc(b1-4)GlcNAc
# Method in brief: as §1
# [22] = target: Neu5Ac(a2-3)Gal(b1-3)GlcNAc(b1-2)[Neu5Ac(a2-3)Gal(b1-3)GlcNAc(b1-4)]Man(a1-6)[Neu5Ac(a2-3)Gal(b1-3)GlcNAc(b1-2)Man(a1-3)]Man(b1-4)GlcNAc(b1-4)GlcNAc
# Method in brief: as §1
# [23] = target: Neu5Ac(a2-3)Gal(b1-3)GlcNAc(b1-3)Gal(b1-3)GlcNAc
# Method in brief: as §1
# [24] = target: Neu5Ac(a2-3)Gal(b1-3)GlcNAc(b1-3)Gal(b1-4)GlcNAc
# Method in brief: as §1
# [25] = target: Neu5Ac(a2-3)Gal(b1-3)GlcNAc(b1-3)GalNAc
# Method in brief: as §1
# [26] = target: Neu5Ac(a2-3)Gal(b1-3)GlcNAc(b1-6)GalNAc
# Method in brief: as §1
# [27] = target: Neu5Ac(a2-3)Gal(b1-3)GlcNAc6S
# Method in brief: as §1
# [28] = target: Neu5Ac(a2-3)Gal(b1-3)[Fuc(a1-4)]GlcNAc
# Method in brief: as §1
# [29] = target: Neu5Ac(a2-3)Gal(b1-3)[Fuc(a1-4)]GlcNAc(b1-3)Gal(b1-3)[Fuc(a1-4)]GlcNAc
# Method in brief: as §1
# [30] = target: Neu5Ac(a2-3)Gal(b1-3)[Fuc(a1-4)]GlcNAc(b1-3)Gal(b1-4)[Fuc(a1-3)]GlcNAc
# Method in brief: as §1
# [31] = target: Neu5Ac(a2-3)Gal(b1-3)[GlcNAc(b1-6)]GalNAc
# Method in brief: as §1
# [32] = target: Neu5Ac(a2-3)Gal(b1-3)[Neu5Ac(a2-6)]GalNAc
# Method in brief: as §1
# [33] = target: Neu5Ac(a2-3)Gal(b1-3)[Neu5Ac(a2-6)]GlcNAc(b1-3)[Fuc(a1-3)[Gal(b1-4)]GlcNAc(b1-6)]Gal(b1-4)Glc
# Method in brief: as §1
binder,measurement,setting,value
B1,glycan array binding signal (z-score),[1],1.31
same,glycan array binding signal (z-score),[2],0.654
same,glycan array binding signal (z-score),[3],4.17
same,glycan array binding signal (z-score),[4],-1.01
same,glycan array binding signal (z-score),[5],3.42
same,glycan array binding signal (z-score),[6],2.28
same,glycan array binding signal (z-score),Man(a1-3)[Man(a1-6)]Man,0.209
same,glycan array binding signal (z-score),[7],5.03
same,glycan array binding signal (z-score),[8],-0.14
same,glycan array binding signal (z-score),[9],-0.022
same,glycan array binding signal (z-score),[10],0.859
same,glycan array binding signal (z-score),[11],0.037
same,glycan array binding signal (z-score),Man(a1-6)Man,-0.378
same,glycan array binding signal (z-score),Man(b1-4)GlcNAc,0.159
same,glycan array binding signal (z-score),MurNAc(b1-4)GlcNAc,0.42
same,glycan array binding signal (z-score),Neu5Ac(a2-3)Gal,-0.196
same,glycan array binding signal (z-score),[12],-0.428
same,glycan array binding signal (z-score),[13],1.4
same,glycan array binding signal (z-score),[14],0.285
same,glycan array binding signal (z-score),[15],-0.006
same,glycan array binding signal (z-score),[16],-0.915
same,glycan array binding signal (z-score),[17],-0.716
same,glycan array binding signal (z-score),[18],-0.085
same,glycan array binding signal (z-score),[19],-0.447
same,glycan array binding signal (z-score),[20],-0.14
same,glycan array binding signal (z-score),[21],1.58
same,glycan array binding signal (z-score),[22],-0.196
same,glycan array binding signal (z-score),[23],-1.03
same,glycan array binding signal (z-score),[24],0.207
same,glycan array binding signal (z-score),[25],-0.064
same,glycan array binding signal (z-score),[26],0.539
same,glycan array binding signal (z-score),[27],1
same,glycan array binding signal (z-score),[28],-0.053
same,glycan array binding signal (z-score),[29],-0.697
same,glycan array binding signal (z-score),[30],-0.166
same,glycan array binding signal (z-score),[31],-0.32
same,glycan array binding signal (z-score),[32],-0.993
same,glycan array binding signal (z-score),[33],0.144

# As a working copy, some entries already given.
binder,measurement,setting,value
B1,glycan array binding signal (z-score),MurNAc(b1-4)GlcNAc,0.42
same,glycan array binding signal (z-score),Neu5Ac(a2-3)Gal,-0.196
same,glycan array binding signal (z-score),[12],-0.428
same,glycan array binding signal (z-score),[13],1.4
same,glycan array binding signal (z-score),[14],0.285
same,glycan array binding signal (z-score),[15],-0.006
same,glycan array binding signal (z-score),[16],-0.915
same,glycan array binding signal (z-score),[17],-0.716
same,glycan array binding signal (z-score),[18],-0.085
